Positions count from the first letter of the chain named. No constants are given. Whether binding was seen depends on the method and setting. Some results given as binding are weak or reduced against the parent protein; the word gives no strength.
B1: protein according to SEQ ID NO: 11 (TFPI-D2 variant with the inhibitor loop FCRAVKR) (designed binder)
chain: KPDFCFLEEDPGFCRAVKRRYFYNNQTKQCERFKYGGCLGNMNNFETLEECKNICEDG
B2: protein according to SEQ ID NO: 17 (TFPI-D2 variant with the inhibitor loop VCRAVKR) (designed binder)
chain: B1 chain with F13V
B3: protein according to SEQ ID NO: 14 (TFPI-D2 variant with the inhibitor loop PCRAVKR) (designed binder)
chain: B1 chain with F13P

Sequences of proteins named here, by UniProt entry; tags and fusion partners are left off. Residues count along the entry.
UniProt O00187, residues 287-686: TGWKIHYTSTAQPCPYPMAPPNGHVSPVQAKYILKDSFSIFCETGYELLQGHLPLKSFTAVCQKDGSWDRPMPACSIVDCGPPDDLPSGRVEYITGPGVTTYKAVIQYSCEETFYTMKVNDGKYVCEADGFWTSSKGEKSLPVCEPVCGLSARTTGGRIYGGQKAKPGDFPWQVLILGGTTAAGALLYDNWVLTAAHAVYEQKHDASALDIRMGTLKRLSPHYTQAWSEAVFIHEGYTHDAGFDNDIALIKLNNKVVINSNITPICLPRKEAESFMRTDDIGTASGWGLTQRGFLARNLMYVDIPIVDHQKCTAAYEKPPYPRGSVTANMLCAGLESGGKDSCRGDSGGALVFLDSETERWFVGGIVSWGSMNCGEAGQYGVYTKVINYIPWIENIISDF

Each binder was assayed against human MASP-2 catalytic fragment CCP1-CCP2-SP (human) (UniProt O00187) (assay: enzyme inhibition).

binding | Binder
binds | B1
binds | B2
binds | B3

Source: US20200131249A1, “NOVEL PROTEINS AND USE THEREOF” (EVOLVERITAS KFT., priority 2017, published 2020)
